From patent publication US20020160988A1 (priority 2001, published 2002)
At least one compound was matched to its structure with a doubt left. Some of these results come from one statement about several compounds together.

System: hypobaric hypoxia
Parameters: species or system mice
Details: mouse, in vivo

CNC(=O)Oc1ccc2c(c1)[C@]1(C)CCN(C)[C@@H]1N2C [physostigmine]
hypothermic effect after injection: 2-3 °C | protection against hypoxia: good protection against hypoxia
